# Source: patent US9737525B2, “Small molecule activators of NRF2 pathway” (The General Hospital Corporation, priority 2013, dated 2017)
# For at least one compound, name, drawing or mass did not settle the structure.
# System: NRF2-responsive proteins NQO1 and GCLM
# Experiment: Induction of NQO1 and GCLM proteins in differentiated ST14A cells (immunoblotting)
# Assay type: cell-based, rat
# Details: differentiated HD mutant and wild type ST14A cells, 24 hours
# Protocol: To assess protein levels, cell extracts were prepared from cells washed with PBS and lysed with buffer containing 2% SDS, Complete EDTA-free Protease Inhibitor Cocktail (Roche) and 1 mM phenylmethylsulfonyl fluoride. To prepare brain extracts for analysis, frozen mouse cortical tissues were homogenized in PBS containing protease inhibitors with an Kontes Pellet Pestle (Kimble/Kontes). They were later sonicated and lysed overnight at 4° C. in 2× volume of lysis buffer containing 2% SDS and protease inhibitors. Protein concentrations in ST14A cell extracts and homogenized cortical tissues were evaluated using a BCA analysis kit and normalized. Samples were prepared in a SDS buffer containing DTT and separated on bis-acrylamide protein gels via electrophoresis and transferred onto a 0.2 μm PVDF membrane). […]
# The NRF2 activation properties of further MIND4 structural analogs with variable potencies of SIRT2 inhibition were tested as described previously (see Table 1) Changes in expression of the canonical NRF2-responsive proteins NQO1 and GCLM, the transcription of which was induced by MIND4, was selected as a readout of pathway activation. […]
smiles,measurement,value
O=[N+]([O-])c1ccc(Sc2nnc(-c3ccccc3)[nH]2)nc1 [MIND4-17C],Induction of NRF2-responsive proteins NQO1 and GCLM,essentially inactive
